Results are given in words; binding and its absence hold for the method and conditions named. In cells and extracts the contact can be indirect. Here binding means that the protein was enriched with, or labelled near, the bait; the list need not be complete.

Chains of the proteins cited; added tags and fusions are not shown.
UniProt Q77Q36: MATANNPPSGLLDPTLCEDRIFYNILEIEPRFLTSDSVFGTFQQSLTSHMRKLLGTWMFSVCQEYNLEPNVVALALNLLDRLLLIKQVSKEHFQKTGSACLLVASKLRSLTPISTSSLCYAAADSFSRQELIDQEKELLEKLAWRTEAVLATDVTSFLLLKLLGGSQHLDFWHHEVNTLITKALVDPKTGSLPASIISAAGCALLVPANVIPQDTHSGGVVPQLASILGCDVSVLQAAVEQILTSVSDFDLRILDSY
UniProt O14744: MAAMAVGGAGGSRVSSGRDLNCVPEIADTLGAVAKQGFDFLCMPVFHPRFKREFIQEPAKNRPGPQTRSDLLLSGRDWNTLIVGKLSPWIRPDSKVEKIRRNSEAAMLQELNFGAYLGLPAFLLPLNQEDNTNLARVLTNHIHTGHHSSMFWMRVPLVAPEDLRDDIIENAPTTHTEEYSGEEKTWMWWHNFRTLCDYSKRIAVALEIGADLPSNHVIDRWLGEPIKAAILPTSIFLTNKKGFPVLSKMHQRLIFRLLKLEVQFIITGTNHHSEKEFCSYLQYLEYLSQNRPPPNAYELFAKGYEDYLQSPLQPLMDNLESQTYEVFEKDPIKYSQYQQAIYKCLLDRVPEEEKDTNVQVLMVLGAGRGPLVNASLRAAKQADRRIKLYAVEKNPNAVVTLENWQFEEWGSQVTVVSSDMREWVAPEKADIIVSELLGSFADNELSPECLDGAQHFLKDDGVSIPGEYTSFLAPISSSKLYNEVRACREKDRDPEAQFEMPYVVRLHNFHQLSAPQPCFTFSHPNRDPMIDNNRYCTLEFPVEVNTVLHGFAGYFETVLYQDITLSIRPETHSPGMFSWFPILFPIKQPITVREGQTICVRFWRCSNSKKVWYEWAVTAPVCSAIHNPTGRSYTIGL

For the assay, the target named is Flag-tagged KSHV vCyclin (Kaposi's sarcoma-associated herpesvirus (KSHV BAC16)) (UniProt Q77Q36). Put plainly: affinity purification with mass spectrometry; Flag-tagged vCyclin or empty vector overexpressed in HEK293T and HEK293T.219 cells for 48 h; lysate in IP lysis buffer on anti-FLAG M2 agarose beads 6-8 h at 4°C, washed 4 times with PBS; eluates analysed by MS.

For “endogenous protein arginine methyltransferase 5 (from UniProt O14744 1-637) (enzyme)”, the binding entry is reported as “binds”.

The values are drawn from paper PMC11421797.
